Measured values taken from US8535897B2, “Assays for non-apoptotic cell death and uses thereof” (The Trustees of Columbia University in the City of New York, priority 2006, dated 2013).
At least one structure is not confirmed: it was looked up by name or label, or the drawing left a doubt.

Test system: BJ-TERT/LT/ST/RASV12 cells
Experiment: Nuclear morphology, fluorescence microscopy (Hoechst 33342)
Type: cell-based, human
Protocol: DNA was stained used Hoechst 33342.
To characterize the type of cell death induced by erastin, the effect of erastin was tested alongside camptothecin and staurosporine, which induce apoptotic cell death^39. Apoptosis is characterized by alterations in nuclear morphology, including pyknosis, karyorhexis and margination of chromatin^93. Nuclear morphology of camptothecin-treated and erastin-treated BJ-TERT/LT/ST/RAS^V12 cells was monitored using fluorescence microscopy. […] Apoptosis-inducing compounds (staurosporine and/or camptothecin) were tested alongside erastin in all of these assays to confirm the functionality of the assay. […] Therefore, in certain aspects the invention provides a genotype-selective anti-tumor agent which induces cell death via a non-apoptotic mechanism of oxidative cell death.

In the case of `CCOc1ccccc1-n1c(C(C)N2CCN(C(=O)COc3ccc(Cl)cc3)CC2)nc2ccccc2c1=O` (stereo not shown) [erastin], the nuclear morphology is reported as “no such morphological alternations were visible”.
